Results are given in words; binding and its absence hold for the method and conditions named. In cells and extracts the contact can be indirect.
Target: Myc-tagged raptor (UniProt Q8N122)
Experiment: co-IP; Myc-raptor cotransfected with HA-eIF3f wt or F323A in mouse primary muscle cells, differentiated 4 days, lysed in immunoprecipitation buffer without detergent; immunoprecipitation with anti-Myc, immunoblot

By UniProt entry, the sequences of proteins in these tests, tags left out. Where a name states a change or a piece, a line headed by the entry shows the natural chain unless it says otherwise.
UniProt Q8N122: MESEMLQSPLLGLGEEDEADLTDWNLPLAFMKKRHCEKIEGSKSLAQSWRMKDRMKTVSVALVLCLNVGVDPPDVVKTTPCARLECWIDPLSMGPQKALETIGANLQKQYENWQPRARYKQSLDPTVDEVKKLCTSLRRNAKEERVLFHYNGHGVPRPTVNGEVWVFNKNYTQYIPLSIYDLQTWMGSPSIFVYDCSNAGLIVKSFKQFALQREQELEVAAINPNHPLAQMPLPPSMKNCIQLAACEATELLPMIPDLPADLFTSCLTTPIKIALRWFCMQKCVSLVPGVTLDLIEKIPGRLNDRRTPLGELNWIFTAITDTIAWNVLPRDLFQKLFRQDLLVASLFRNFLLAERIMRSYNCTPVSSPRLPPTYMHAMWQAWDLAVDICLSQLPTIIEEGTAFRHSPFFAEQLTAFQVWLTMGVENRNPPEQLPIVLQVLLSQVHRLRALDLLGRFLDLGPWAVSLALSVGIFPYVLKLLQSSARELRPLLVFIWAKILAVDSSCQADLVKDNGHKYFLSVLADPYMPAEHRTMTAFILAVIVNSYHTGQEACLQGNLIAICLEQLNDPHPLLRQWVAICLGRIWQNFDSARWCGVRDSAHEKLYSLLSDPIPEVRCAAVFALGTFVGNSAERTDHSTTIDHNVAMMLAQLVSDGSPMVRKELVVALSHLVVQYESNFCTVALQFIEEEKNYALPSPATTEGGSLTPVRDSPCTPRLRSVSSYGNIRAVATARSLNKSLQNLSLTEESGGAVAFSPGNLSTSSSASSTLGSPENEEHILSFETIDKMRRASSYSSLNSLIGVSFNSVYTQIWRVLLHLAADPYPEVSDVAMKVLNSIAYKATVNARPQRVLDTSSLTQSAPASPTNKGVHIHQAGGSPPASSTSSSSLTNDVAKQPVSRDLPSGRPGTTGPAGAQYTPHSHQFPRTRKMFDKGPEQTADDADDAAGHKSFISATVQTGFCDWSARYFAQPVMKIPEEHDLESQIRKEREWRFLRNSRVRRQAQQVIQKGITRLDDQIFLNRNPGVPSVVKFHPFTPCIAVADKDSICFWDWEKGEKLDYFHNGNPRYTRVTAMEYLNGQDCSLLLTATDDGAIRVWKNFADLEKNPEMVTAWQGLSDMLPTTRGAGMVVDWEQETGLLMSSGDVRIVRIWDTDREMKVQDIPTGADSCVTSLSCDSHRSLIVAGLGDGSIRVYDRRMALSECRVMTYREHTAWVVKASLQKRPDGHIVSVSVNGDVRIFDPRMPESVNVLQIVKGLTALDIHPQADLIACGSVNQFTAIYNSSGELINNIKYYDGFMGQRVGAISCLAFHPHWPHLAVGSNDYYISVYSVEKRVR
UniProt Q9DCH4: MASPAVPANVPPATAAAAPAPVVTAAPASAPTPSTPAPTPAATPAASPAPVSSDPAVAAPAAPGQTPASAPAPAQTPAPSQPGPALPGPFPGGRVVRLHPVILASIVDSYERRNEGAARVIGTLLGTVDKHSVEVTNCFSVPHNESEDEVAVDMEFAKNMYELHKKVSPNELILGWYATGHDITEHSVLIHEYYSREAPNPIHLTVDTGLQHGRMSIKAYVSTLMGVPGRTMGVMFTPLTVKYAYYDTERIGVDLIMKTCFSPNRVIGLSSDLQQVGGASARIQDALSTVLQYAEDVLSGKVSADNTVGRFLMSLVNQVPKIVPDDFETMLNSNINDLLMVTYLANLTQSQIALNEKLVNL

For “HA-tagged TOS motif mutant eIF3f F323A (from UniProt Q9DCH4)”, the binding was “no binding”.
